Consider one substance from PMC1440875.

Protein sequences, listed by entry. Tags and fused reporters are not part of them. Residues count along the entry.
UniProt P01522, residues 46-73: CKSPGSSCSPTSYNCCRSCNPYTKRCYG

No constants are given. Whether binding was seen depends on the method and setting. Some binding calls cover weakened binding; strength is not graded here.

The target of this assay is N-type calcium channels (rat (endogenous in brain)) (UniProt Q02294). The experiment in a line: radioligand binding; only the binder purified.

With “ω-conotoxin GVIA (from UniProt P01522 46-73) (peptide)”, the binding entry was “binds”.
